Patent publication US20250145679A1
These are yes or no findings as the source states them, for the method shown. Some entries that bind do so weakly or less than the wild type.

Target: T1, IL-2/15Rβ (CD122) ECD (human) (UniProt P14784)
T1 sequence: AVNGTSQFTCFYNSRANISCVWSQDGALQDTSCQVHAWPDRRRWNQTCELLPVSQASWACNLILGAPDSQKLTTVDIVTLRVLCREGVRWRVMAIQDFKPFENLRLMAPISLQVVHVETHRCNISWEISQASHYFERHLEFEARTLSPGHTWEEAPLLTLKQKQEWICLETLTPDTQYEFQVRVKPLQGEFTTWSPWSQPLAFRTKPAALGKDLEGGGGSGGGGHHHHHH
Assay: SPR, Biacore 8K

B1: W327151-TXU1.P1-V0013.uIgG4V322 (Fc fusion)
chain 1: NWVNVISDLKKIEDLIQSMHIDATLYTESDVHPSCKVTAMKCFLLELQVISLESGDASIHDTVENLIILANNSLSSNGNVTESGCKECEELEEKNIKEFLQSFVHIVQMFESKYGPPCPPCPAPEAAGGPSVFLFPPKPKDTLMISRTPEVTCVVVDVSQEDPEVQFNWYVDGVEVHNAKTKPREEQFNSTYRVVSVLTVLHQDWLNGKEYKCKVSNKGLPSSIEKTISKAKGQPREPQVYTLPPCQEEMTKNQVSLWCLVKGFYPSDIAVEWESNGQPENNYKTTPPVLDSDGSFFLYSRLTVDKSRWQEGNVFSCSVMHEALHNHYTQKSLSLSLGK
chain 2: ITCPPPMSVEHADIWVKSYSLYSRERYICNSGFKRKAGTSSLTECVLNKATNVAHWTTPSLKCIRESKYGPPCPPCPAPEAAGGPSVFLFPPKPKDTLMISRTPEVTCVVVDVSQEDPEVQFNWYVDGVEVHNAKTKPREEQFNSTYRVVSVLTVLHQDWLNGKEYKCKVSNKGLPSSIEKTISKAKGQPREPQVCTLPPSQEEMTKNQVSLSCAVKGFYPSDIAVEWESNGQPENNYKTTPPVLDSDGSFFLVSRLTVDKSRWQEGNVFSCSVMHEALHNHYTQKSLSLSLGK
B1 was tested, and the binding was “binds”.
